In this assay the target is native α-tubulin-I in P. falciparum 3D7 parasite lysate (Plasmodium falciparum 3D7 (endogenous in parasite lysate)) (UniProt Q6ZLZ9). Put plainly: co-IP.

Sequences of proteins named here, by UniProt entry; tags and fusion partners are left off.
UniProt Q6ZLZ9: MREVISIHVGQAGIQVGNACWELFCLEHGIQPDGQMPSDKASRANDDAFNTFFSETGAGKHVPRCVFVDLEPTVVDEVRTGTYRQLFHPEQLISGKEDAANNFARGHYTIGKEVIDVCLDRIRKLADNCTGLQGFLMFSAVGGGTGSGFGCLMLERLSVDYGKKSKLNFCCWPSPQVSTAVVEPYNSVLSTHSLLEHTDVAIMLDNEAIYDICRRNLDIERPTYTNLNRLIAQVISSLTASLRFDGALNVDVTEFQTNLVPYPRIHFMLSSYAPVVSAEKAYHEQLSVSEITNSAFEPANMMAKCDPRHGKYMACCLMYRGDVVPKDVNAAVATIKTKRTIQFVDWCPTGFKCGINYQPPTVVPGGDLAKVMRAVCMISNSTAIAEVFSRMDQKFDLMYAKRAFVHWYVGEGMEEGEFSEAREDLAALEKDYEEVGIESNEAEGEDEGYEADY

No constants are given. Whether binding was seen depends on the method and setting. Binding seen in cells or lysates may run through a third protein. Some entries that bind do so weakly or less than the wild type.

B1: native PfPFD2 in P. falciparum 3D7 parasite lysate (protein, UniProt Q8ILS7 1-147)
chain: METKSNVESPNISEPKESKLTYEQIEKDRVQLVSKIEELYQDVVEHKLVLEALENVPSDRRCYRMVGEVLVERTVGEIKPALMDHKNKVEQVIAECQKQLDQKNNEISNFIKSAKAGNLPGGIINGNPSEDTNNLNDKEKKSDGIIF
With B1, the binding result is “binds”.

These data come from doi:10.1101/2022.09.17.508354.
